At least one structure is not confirmed: it was looked up by name or label, or the drawing left a doubt.
Assays:
IL-33 [1] = test: Alternaria extract-induced IL-33 release in BAL fluid (ELISA); type: in vivo, mouse
[2] = tested on: OVA-induced chronic airway inflammation; details: reported in literature; cited from earlier work
[3] = tested on: type 2 cytokines and chemokines; test: Alternaria extract-induced cytokine and chemokine protein in BAL fluid and lung homogenate (ELISA); type: in vivo, mouse; details: vs vehicle
DUOX1 = DUOX1 mRNA expression in the Alternaria extract-challenged lung (real-time PCR); type: in vivo, mouse; details: vs vehicle; 1 h after Alternaria extract-challenge
CD4 T cells = test: Number of CD4 T cells expressing IL-5 and IL-13 after Alternaria extract-challenge (intracellular cytokine staining); type: in vivo, mouse; details: Alternaria extract 4 consecutive days
lung ILC2 = test: Number of lung ILC2 expressing IL-5 and IL-13 after Alternaria extract-challenge (flow cytometry); type: in vivo, mouse; details: vs vehicle; Alternaria extract 4 consecutive days
[4] = tested on: Alternaria extract-challenged mice; test: Eosinophilia, mucus production and airway responsiveness after airway Alternaria extract-challenge; type: in vivo, mouse; details: vs vehicle
[5] = tested on: bleomycin-induced pulmonary fibrosis; details: reported in literature; cited from earlier work
IL-33 [6] = test: Alternaria extract-induced IL-33 expression in lung epithelial cells (IL-33Citrine/+ reporter mice, flow cytometry); type: in vivo, mouse; details: vs vehicle, s.c. up to 0.2 mg/kg
[7] = both BAL fluids and lung homogenates, 24 h after last challenge
[8] = BAL fluid 24 h after last challenge
[9] = Alternaria extract 4 consecutive days

## CCCCCCCCCCCCCCCC(=O)N[C@@H](CCC(=O)NCCCC[C@H](NC(=O)[C@H](C)NC(=O)[C@H](C)NC(=O)[C@H](CCC(N)=O)NC(=O)CNC(=O)[C@H](CCC(=O)O)NC(=O)[C@H](CC(C)C)NC(=O)[C@H](Cc1ccc(O)cc1)NC(=O)[C@H](CO)NC(=O)[C@H](CO)NC(=O)[C@@H](NC(=O)[C@H](CC(=O)O)NC(=O)[C@H](CO)NC(=O)[C@@H](NC(=O)[C@H](Cc1ccccc1)NC(=O)[C@@H](NC(=O)CNC(=O)[C@H](CCC(=O)O)NC(=O)[C@H](C)NC(=O)[C@@H](N)Cc1cnc[nH]1)[C@@H](C)O)[C@@H](C)O)C(C)C)C(=O)N[C@@H](CCC(=O)O)C(=O)N[C@@H](Cc1ccccc1)C(=O)N[C@H](C(=O)N[C@@H](C)C(=O)N[C@@H](Cc1c[nH]c2ccccc12)C(=O)N[C@@H](CC(C)C)C(=O)N[C@H](C(=O)N[C@@H](CCCNC(=N)N)C(=O)NCC(=O)N[C@@H](CCCNC(=N)N)C(=O)NCC(=O)O)C(C)C)[C@@H](C)CC)C(=O)O [GLP-1R agonist, liraglutide]
IL-33 [1]; mice, airway challenge with Alternaria alternata allergen extract, summary statement
  IL-33 expression and release from the lungs: inhibited
IL-33 [1]; vs vehicle, 1 h after first Alternaria extract-challenge, s.c. up to 0.2 mg/kg
  Alternaria extract-induced IL-33 protein in BAL fluid: significantly decreased
[2]
  OVA-induced chronic airway inflammation: attenuated
[3]; [7]
  Alternaria extract-induced protein expression of CCL17: statistically significant decrease
  Alternaria extract-induced protein expression of CCL 22: statistically significant decrease
  Alternaria extract-induced protein expression of CCL24: statistically significant decrease
  Alternaria extract-induced protein expression of IL-5: statistically significant decrease
  Alternaria extract-induced protein expression of IL-13: statistically significant decrease
[3]; lung homogenates
  Alternaria extract-induced CCL11 protein expression: decreased
  Alternaria extract-induced IL-4 protein expression: decreased
  Alternaria extract-induced IL-9 protein expression: decreased
DUOX1
  Lung DUOX1 mRNA expression: significantly decreased
CD4 T cells
  number of Alternaria extract-induced CD4 T cells expressing IL-5: but not IL-5
  number of Alternaria extract-induced CD4 T cells expressing IL-13: significantly suppressed
Lung ILC2
  number of Alternaria extract-induced IL-5+ lung ILC2: significantly suppressed
  number of Alternaria extract-induced IL-13+ lung ILC2: significantly suppressed
  number of Alternaria extract-induced total lung ILC2: significantly suppressed
[4]; [8]
  number of Alternaria extract-induced BAL eosinophils: significantly decreased
  number of Alternaria extract-induced BAL lymphocytes: significantly decreased
  number of Alternaria extract-induced BAL macrophages: significantly decreased
  number of Alternaria extract-induced total BAL cells: significantly decreased
[4]; PAS staining, 48 h after last challenge
  Alternaria extract-induced mucus production: significantly decreased
[4]; immunohistopathology (anti-MBP), 48 h after last challenge
  Alternaria extract-induced perivascular eosinophils in the lung: significant decrease
[4]; methacholine challenge
  Alternaria extract-induced airway responsiveness (AR): significantly decreased
[5]
  bleomycin-induced pulmonary fibrosis: attenuated
IL-33 [6]; [9]
  number of citrine+ (IL-33) lung epithelial cells: significantly decreased
  percentage of citrine+ (IL-33) lung epithelial cells: significantly decreased
IL-33 [6]; Alternaria extract intranasally 4 consecutive days, CD45- EpCAM+ cells
  Alternaria extract-induced MFI of citrine (IL-33) in lung epithelial cells: significantly decreased

— patent publication US11666636B2, “GLP-1R agonists and uses thereof” (priority 2017, dated 2023)
